Test results: article PMC10733312
Results are given in words; binding and its absence hold for the method and conditions named. In cells and extracts the contact can be indirect. Some entries that bind do so weakly or less than the wild type. Sequences can lack the tags named with a protein.

Sequences of proteins named here, by UniProt entry; tags and fusion partners are left off.
UniProt P19474: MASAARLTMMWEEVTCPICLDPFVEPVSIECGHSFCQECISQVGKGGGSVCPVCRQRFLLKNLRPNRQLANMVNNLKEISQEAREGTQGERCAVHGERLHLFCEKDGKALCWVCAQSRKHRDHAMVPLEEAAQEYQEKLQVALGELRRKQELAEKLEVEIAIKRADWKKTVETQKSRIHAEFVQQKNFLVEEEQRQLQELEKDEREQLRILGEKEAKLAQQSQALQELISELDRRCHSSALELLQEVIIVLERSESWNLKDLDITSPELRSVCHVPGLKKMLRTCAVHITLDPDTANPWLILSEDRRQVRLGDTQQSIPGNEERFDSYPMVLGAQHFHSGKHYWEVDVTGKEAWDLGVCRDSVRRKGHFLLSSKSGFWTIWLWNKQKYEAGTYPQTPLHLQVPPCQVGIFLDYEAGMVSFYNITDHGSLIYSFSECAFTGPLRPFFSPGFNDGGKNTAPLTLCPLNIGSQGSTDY

Target: T1, Flag-Sohlh2 (UniProt Q9NX45)
T1 sequence: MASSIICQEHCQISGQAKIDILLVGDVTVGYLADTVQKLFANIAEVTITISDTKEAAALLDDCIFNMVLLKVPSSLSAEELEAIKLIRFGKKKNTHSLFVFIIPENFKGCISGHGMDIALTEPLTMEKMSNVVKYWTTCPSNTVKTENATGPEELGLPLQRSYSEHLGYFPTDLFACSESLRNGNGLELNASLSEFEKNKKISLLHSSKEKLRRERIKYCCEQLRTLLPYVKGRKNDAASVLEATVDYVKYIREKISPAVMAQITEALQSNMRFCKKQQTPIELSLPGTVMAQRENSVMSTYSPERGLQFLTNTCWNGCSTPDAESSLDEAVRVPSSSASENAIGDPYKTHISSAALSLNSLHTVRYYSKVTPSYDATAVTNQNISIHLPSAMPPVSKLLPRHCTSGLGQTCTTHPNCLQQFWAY
Assay: co-IP; THP-1 or HEK293T cells lysed 24 h after transfection; supernatants incubated with anti-Flag antibody (normal mouse IgG as negative control) for 2 h, then protein A/G beads overnight at 4 °C; washed 3 times with lysis buffer

Substance: E3 ubiquitin ligase TRIM21 (from UniProt P19474 1-475) (enzyme)
- binding: binds
